Data from patent US12685780B2, “Immune inducer containing polynucleotide-peptide conjugate and pharmaceutical composition containing same” (The University of Kitakyushu, priority 2020, dated 2026).

The substances below were run on ERAP (assay: In vitro evaluation of peptide cleavage by ERAP). Settings: in vitro evaluation using the peptide.
Format: biochemical
In the case of “C-TRP2-13: CFANASVYDFFVWL (SEQ ID NO: 36); cysteine added to N-terminus of mTRP2 residues 176 to 188 (C-TRP2-13)”, the “Susceptibility of the peptide to cleavage by ERAP” value (“Susceptibility of the peptide” for short) is reported as “became susceptible to cleavage by ERAP”. In the case of “CM-TRP2-9: CMSVYDFFVWL (SEQ ID NO: 35); cysteine and methionine added to N-terminus of mTRP2 residues 180 to 188 (CM-TRP2-9)”, the “Susceptibility of the peptide” value is reported as “became susceptible to cleavage by ERAP”. “C-TRP2-11: CNASVYDFFVWL (SEQ ID NO: 37); cysteine added to N-terminus of mTRP2 residues 178 to 188 (C-TRP2-11)” was tested, and the “Susceptibility of the peptide” value was “became susceptible to cleavage by ERAP”.

Some entries repeat one wording, which the source may state once for all of them.
